Source: patent US20030162943A1
No constants are given. Whether binding was seen depends on the method and setting. Some binding calls cover weakened binding; strength is not graded here.

Amino acid sequences for entries named in this document (tags omitted). A change or cut given only in a name is not applied to a line headed by its entry. Residues count along the entry.
UniProt O08707: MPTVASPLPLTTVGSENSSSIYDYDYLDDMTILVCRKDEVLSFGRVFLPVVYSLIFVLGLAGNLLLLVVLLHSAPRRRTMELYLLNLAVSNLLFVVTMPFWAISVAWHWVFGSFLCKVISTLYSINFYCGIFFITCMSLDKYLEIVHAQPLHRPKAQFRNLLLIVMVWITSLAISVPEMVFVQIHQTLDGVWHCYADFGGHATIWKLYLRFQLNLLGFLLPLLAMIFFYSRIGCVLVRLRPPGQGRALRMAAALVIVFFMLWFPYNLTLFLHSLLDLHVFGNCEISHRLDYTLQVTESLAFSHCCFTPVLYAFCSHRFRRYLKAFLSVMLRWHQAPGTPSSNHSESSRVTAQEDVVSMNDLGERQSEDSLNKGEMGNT
UniProt O00590: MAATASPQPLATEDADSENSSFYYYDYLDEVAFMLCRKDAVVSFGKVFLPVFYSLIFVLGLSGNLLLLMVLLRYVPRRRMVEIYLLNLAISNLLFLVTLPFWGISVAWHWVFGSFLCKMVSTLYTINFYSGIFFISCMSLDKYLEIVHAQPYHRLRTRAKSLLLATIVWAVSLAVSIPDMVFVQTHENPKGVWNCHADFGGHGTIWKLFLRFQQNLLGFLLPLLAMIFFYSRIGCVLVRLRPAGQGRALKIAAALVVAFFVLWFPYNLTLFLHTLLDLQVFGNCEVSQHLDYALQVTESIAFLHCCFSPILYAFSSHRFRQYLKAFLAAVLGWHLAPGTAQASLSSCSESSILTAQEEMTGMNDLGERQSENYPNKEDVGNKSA
UniProt P10148, residues 24-148: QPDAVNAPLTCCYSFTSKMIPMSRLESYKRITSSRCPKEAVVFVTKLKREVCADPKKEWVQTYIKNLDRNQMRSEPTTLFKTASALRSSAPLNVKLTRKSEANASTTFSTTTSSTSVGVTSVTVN

Columns and labels:
murine D6 (murine) [1] = target: murine D6 (murine) (UniProt O08707); experiment: binding assays on CHO cells expressing murine D6
human D6 (human) = human D6 (human) (UniProt O00590); experiment: displacement of 125I-murine MIP-1α on cells expressing human D6
murine D6 (murine) [2] = target: murine D6 (murine) (UniProt O08707); experiment: competition with 125I-murine MIP-1α on CHO cells stably expressing murine D6

binding (murine D6 (murine) [1]): binds
binding (human D6 (human)): binds
binding (murine D6 (murine) [2]): binds
Substance: murine JE (from UniProt P10148 24-148) (ligand)
